This passage reports binding results from paper doi:10.1101/2024.11.07.622557.

By UniProt entry, the sequences of proteins in these tests, tags left out. Where a name states a change or a piece, a line headed by the entry shows the natural chain unless it says otherwise. Residues count along the entry.
UniProt P08581: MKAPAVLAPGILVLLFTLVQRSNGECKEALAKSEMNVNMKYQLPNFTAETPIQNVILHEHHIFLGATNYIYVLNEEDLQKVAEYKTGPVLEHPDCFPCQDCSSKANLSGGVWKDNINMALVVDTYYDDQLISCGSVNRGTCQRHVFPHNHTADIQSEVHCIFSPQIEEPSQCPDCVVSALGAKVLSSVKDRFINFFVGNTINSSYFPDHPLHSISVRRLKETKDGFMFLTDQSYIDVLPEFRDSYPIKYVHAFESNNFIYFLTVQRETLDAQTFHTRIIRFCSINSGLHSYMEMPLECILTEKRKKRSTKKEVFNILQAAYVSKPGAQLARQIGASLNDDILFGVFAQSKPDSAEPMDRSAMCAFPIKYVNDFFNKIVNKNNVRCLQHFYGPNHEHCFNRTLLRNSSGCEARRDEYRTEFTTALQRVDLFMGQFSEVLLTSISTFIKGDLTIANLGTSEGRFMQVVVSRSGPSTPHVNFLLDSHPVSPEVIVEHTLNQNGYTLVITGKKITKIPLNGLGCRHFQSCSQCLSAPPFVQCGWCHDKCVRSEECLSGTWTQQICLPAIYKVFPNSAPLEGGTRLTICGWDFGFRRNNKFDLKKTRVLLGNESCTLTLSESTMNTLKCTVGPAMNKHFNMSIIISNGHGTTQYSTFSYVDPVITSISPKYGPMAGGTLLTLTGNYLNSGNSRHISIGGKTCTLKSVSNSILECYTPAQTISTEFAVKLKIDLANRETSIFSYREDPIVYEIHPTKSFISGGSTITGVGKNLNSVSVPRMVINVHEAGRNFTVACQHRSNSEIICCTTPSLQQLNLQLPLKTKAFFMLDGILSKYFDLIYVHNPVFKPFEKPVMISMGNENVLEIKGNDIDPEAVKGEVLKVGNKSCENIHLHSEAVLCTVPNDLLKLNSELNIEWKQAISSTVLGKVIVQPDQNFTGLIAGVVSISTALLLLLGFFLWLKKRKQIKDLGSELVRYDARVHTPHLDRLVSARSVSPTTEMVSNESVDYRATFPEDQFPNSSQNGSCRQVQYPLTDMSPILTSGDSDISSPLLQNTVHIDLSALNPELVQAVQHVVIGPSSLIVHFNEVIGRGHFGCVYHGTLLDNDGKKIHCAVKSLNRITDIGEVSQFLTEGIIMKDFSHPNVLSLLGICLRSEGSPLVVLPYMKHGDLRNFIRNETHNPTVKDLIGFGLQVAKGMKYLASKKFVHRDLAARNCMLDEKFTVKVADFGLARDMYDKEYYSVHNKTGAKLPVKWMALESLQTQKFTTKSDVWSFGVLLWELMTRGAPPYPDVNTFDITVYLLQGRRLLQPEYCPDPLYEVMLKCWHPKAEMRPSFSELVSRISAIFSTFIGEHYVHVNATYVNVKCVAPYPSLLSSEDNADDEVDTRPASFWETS
c-Met (human (endogenous in HepG2 and Hep3B)): residues 25-1390 of P08581

No constants are given. Whether binding was seen depends on the method and setting. In cells and extracts the contact can be indirect. Some entries that bind do so weakly or less than the wild type. Tags and fused reporters may be left off the sequences shown.

The target in one test is T1, LgBiT-tagged HHLA2 (UniProt Q9UM44).
T1 sequence: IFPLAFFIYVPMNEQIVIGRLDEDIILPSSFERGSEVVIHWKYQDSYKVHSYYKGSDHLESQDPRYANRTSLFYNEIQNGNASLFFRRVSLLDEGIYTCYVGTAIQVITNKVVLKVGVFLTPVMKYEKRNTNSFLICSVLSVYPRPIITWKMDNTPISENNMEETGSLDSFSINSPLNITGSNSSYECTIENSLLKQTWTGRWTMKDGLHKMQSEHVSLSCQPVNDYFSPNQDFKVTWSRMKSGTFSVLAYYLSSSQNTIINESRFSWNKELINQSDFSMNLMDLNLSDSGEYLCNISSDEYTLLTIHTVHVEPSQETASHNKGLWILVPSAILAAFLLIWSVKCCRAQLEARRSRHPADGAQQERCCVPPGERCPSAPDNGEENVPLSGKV
Put plainly: split reporter.

For the next test, the target named is T2, HHLA2-HA (UniProt Q9UM44).
T2 sequence (chain, extensively glycosylated (smeared band on western blots); sites not stated): T1 sequence
Kind of test: co-IP.

Test [1] has as its target c-Met (human (endogenous in HepG2 and Hep3B)) (UniProt P08581). Put plainly: co-IP.

As to “c-MET-ExD-SmBit-6His recombinant protein (from UniProt P08581 25-932) (domain or fragment)”, the binding result in the test with LgBiT-tagged HHLA2 is reported as “binds”. For the molecule “c-Met (from UniProt P08581 25-1390) (receptor)”, the binding entry in the test with HHLA2-HA is given as “binds”.

B1: HHLA2-HA (protein, UniProt Q9UM44 23-414)
chain: T1 sequence
modifications: extensively glycosylated (smeared band on western blots); sites not stated
As to B1, the binding result in test [1] is “binds”.
